Experimental data reported in paper PMC3281992.
These are yes or no findings as the source states them, for the method shown. Binding seen in cells or lysates may run through a third protein. Here binding means that the protein was enriched with, or labelled near, the bait; the list need not be complete. For some of these results: No binding means not detected with the bait. Tags and fused reporters may be left off the sequences shown.

Chains of the proteins cited; added tags and fusions are not shown.
UniProt Q8VDS3: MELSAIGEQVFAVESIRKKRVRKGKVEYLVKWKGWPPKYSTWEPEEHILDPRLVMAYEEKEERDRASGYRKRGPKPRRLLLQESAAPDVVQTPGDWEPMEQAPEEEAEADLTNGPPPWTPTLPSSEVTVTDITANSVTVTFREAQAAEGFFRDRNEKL
UniProt Q9CQJ4: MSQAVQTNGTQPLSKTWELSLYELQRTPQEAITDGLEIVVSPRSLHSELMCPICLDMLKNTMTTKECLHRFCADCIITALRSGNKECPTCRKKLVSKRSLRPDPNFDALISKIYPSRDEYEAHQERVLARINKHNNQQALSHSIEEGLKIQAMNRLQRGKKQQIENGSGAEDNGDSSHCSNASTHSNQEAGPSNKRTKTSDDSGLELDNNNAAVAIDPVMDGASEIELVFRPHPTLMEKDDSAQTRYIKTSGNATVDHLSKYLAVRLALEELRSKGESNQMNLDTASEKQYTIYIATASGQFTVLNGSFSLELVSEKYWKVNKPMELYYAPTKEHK

T1: RYBP-Flag (mouse) (UniProt Q8CCI5)
T1 sequence: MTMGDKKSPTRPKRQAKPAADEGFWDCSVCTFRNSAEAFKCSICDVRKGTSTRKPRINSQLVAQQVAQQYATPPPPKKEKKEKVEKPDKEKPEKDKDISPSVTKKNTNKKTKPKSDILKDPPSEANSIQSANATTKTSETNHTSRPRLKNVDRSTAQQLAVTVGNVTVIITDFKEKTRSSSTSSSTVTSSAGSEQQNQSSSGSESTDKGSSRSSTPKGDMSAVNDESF

T2: MEL-18-Flag (mouse) (UniProt P23798)
T2 sequence: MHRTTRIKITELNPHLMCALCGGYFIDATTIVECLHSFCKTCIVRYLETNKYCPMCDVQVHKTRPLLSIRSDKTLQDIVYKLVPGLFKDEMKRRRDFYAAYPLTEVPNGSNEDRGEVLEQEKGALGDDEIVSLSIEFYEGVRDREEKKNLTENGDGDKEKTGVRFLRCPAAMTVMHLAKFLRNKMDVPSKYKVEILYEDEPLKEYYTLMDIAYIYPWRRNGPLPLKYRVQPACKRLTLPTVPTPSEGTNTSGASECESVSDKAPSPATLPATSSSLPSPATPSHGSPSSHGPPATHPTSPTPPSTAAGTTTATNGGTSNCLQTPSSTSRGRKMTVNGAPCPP


Assays:
RYBP-Flag (mouse) = target: T1, RYBP-Flag (mouse); assay: affinity purification with mass spectrometry; Flag purification of MEL-18-Flag, RYBP-Flag or CBX7-Flag from PGK12.1 mESC nuclear extract; gel bands or lanes analysed by LC-MS/MS
MEL-18-Flag (mouse) [1] = target: T2, MEL-18-Flag (mouse); assay: affinity purification with mass spectrometry + co-IP; Flag purification of MEL-18-Flag from NSC nuclear extract, LC-MS/MS and western blot
MEL-18-Flag (mouse) [2] = target: T2, MEL-18-Flag (mouse); assay: affinity purification with mass spectrometry; Flag purification of MEL-18-Flag, RYBP-Flag or CBX7-Flag from PGK12.1 mESC nuclear extract; gel bands or lanes analysed by LC-MS/MS

| Molecule | binding (RYBP-Flag (mouse)) | binding (MEL-18-Flag (mouse) [1]) | binding (MEL-18-Flag (mouse) [2]) |
| --- | --- | --- | --- |
| CBX7 (from UniProt Q8VDS3 1-158) | no binding | – | – |
| MPH1 (protein, UniProt Q64028 1-1010) METESEQNSSSTNGSSSSGASSRPQIAQMSLYERQAVQALQALQRQPNAAQYFHQFMLQQQLSNAQLHSLAAVQQATIAASRQASSPNSSTAQQQTATTQASMNLATTSAAQLISRSQSVSSPSATTLTQSVLLGNTTSPPLNQSQAQMYLRPQLGNLLQVNRTLGRNVPLASQLILMPNGAVAAVQQEVPPAQSPGVHADADQVQNLAVRNQQASAQGPQMPGSTQKAIPPGASPVSGLSQTSSQALAVAQASSGASGQSLNLSQAGGGSGNSLPGSMGPGGGGQAPGGLGQLPSSGLTGGSCPRKGTGVVQPLPAAQTVTVSQGSQTEAESAAAKKAEADGSGQQSVGMNLTRTATPAPSQTLISSATYTQIQPHSLIQQQQQIHLQQKQVVIQQQIAIHHQQQFQHRQSQLLHTATHLQLAQQQQQQQQQQQQQQQQQQQQQQGTTLTAPQPPQVPPTQQVPPSQSQQQAQTLVVQPMLQSSPLTLPPEPTSKPPIPIQSKPPVAPIKPPQLGAAKMSATQQPPPHIPVQVVGTRQPGSAQAQALGLAQLAAAVPTPRGITGAVQPGQAHLASSPPSSQAAPGALQECPPALAAGMTLAPVQGTAHVVKGGPTASSPVVAQVPAAFYMQSVHLPGKAQTLAVKRKAESEEERDDLSALASVLPTKASPAAESPKVIEEKNSLGEKAEPVASLNANPPNSDLVALAPTPSAPPPTLALVSRQMGDSKPPQAIVKPQILTHIIEGFVIQEGAEPFPVGCSQFLKETKKPLQAGLPTGLNESQPSGPLGGDSPSVELEKKANLLKCEYCGKYAPAEQFRGSKRFCSMTCAKRYNVSCSHQFRLKRKKMKEFQEASYARVRRRGPRRSSSDIARAKIQGKRHRGQEDSSRGSDNSSYDEALSPTSPGPLSVRAGHGERDLGNTITTPSTPELQGINPVFLSSNPSQWSVEEVYEFIASLQGCQEIAEEFRSQEIDGQALLLLKEEHLMSAMNIKLGPALKICAKINVLKET | – | binds | binds |
| MBLR (protein, UniProt Q99NA9 1-353) MDEAETDATENKRASEAKRASAMPPPPPPPPPISPPALIPAPAAGEEGPASLGQAGAAGCSRSRPPALEPERSLGRLRGRFEDYDEELEEEEEMEEEEEEEEEMSHFSLRLESGRADSEDEEERLINLVELTPYILCSICKGYLIDATTITECLHTFCKSCIVRHFYYSNRCPKCNIVVHQTQPLYNIRLDRQLQDIVYKLVINLEEREKKQMHDFYKERGLEVPKPAAPQPVPSSKGKTKKVLESVFRIPPELDMSLLLEFIGANEDTGHFKPLEKKFVRVSGEATIGHVEKFLRRKMGLDPACQVDIICGDHLLERYQTLREIRRAIGDTAMQDGLLVLHYGLVVSPLKIT | binds | – | – |
| CBX8 (protein, UniProt Q9QXV1 1-362) MELSAVGERVFAAEALLKRRIRKGRMEYLVKWKGWSQKYSTWEPEENILDARLLAAFEEREREMELYGPKKRGPKPKTFLLKAQAKAKAKTYEFRSDSTRGIRIPYPGRSPQDLASTSRAREGLRNTGLPPPGSSTSTCRADPPRDRDRERDRGTSRVDDKPSSPGDSSKKRGPKPRKEPLDPSQRPLGEPSAGLGEYLKGRKLDETSSGTGKFPAGHSVIQLARRQDSDLVQYGVTSPSSAEASSKLAVDTFPARVIKHRAAFLEAKGQGALDPGGARVRHSSGTPASVGSLYRDMGAQGGRPSLIARIPVARILGDPEEESWSPSLTNLEKVVVTDVTSNFLTVTIKESNTDQGFFKEKR | – | binds | binds |
| CBX4 (protein, UniProt O55187 1-551) MELPAVGEHVFAVESIEKKRIRKGRVEYLVKWRGWSPKYNTWEPEENILDPRLLIAFQNRERQEQLMGYRKRGPKPKPLVVQVPTFARRSNVLTGLQDSSADNRAKLELGTQGKGQGHQYELNSKKHHQYQPHSKERSGKPPPPGKSGKYYYQLNSKKHHPYQPDPKMYDLQYQGGHKEAPSPTCPDLGTKSHPPDKWAHGAAAKGYLGAVKPLGGGAGAPGKGSEKGPPNGMTPAPKEAVTGNGIGGKMKIVKNKNKNGRIVIVMSKYMENGMQAVKIKSGEAAEGEARSPSHKKRAAEERHPQGDRTFKKAAGASEEKKAEVPCKRREEEALVSGDAQPQDLGSRKLSPTKEAFGEQPLQLTTKPDLLAWDPARSSHPPAHHHHHHHHHHHHHTVGLNLSHARKRCLSETHGEREPCKKRLTARSISTPTCLGGSPVSEHPANVSPTAASLPQPEVILLDSDLDEPIDLRCVKMRSDAGEPPSTLQVKPEAPAVAAVVAPAPASEKPPAEAQEEPVEPLSEFKPFFGNIIITDVTANCLTVTFKEYVTV | – | binds | – |
| MEL-18 (protein, UniProt P23798 1-342) MHRTTRIKITELNPHLMCALCGGYFIDATTIVECLHSFCKTCIVRYLETNKYCPMCDVQVHKTRPLLSIRSDKTLQDIVYKLVPGLFKDEMKRRRDFYAAYPLTEVPNGSNEDRGEVLEQEKGALGDDEIVSLSIEFYEGVRDREEKKNLTENGDGDKEKTGVRFLRCPAAMTVMHLAKFLRNKMDVPSKYKVEILYEDEPLKEYYTLMDIAYIYPWRRNGPLPLKYRVQPACKRLTLPTVPTPSEGTNTSGASECESVSDKAPSPATLPATSSSLPSPATPSHGSPSSHGPPATHPTSPTPPSTAAGTTTATNGGTSNCLQTPSSTSRGRKMTVNGAPCPP | binds | – | – |

Other lines, results leading:

| binding (RYBP-Flag (mouse)) | binding (MEL-18-Flag (mouse) [1]) | binding (MEL-18-Flag (mouse) [2]) | Molecule |
| --- | --- | --- | --- |
| binds | binds | binds | RING1B (from UniProt Q9CQJ4 1-336) |
| – | binds | binds | RYBP (protein, UniProt Q8CCI5 1-228) MTMGDKKSPTRPKRQAKPAADEGFWDCSVCTFRNSAEAFKCSICDVRKGTSTRKPRINSQLVAQQVAQQYATPPPPKKEKKEKVEKPDKEKPEKDKDISPSVTKKNTNKKTKPKSDILKDPPSEANSIQSANATTKTSETNHTSRPRLKNVDRSTAQQLAVTVGNVTVIITDFKEKTRSSSTSSSTVTSSAGSEQQNQSSSGSESTDKGSSRSSTPKGDMSAVNDESF |
| – | – | binds | MPH3 (protein, UniProt Q8CHP6 1-981) MDSEPSSGTSVSTTASSTTTTTITTSSSRMQQPQISVYSGSDRHAVQVIQQALHRPPSSAAQYLQQMYAAQQQHLMLHTAALQQQHLSSSQLQSLAAVQASLSSGRPSTSPTGSVTQQSSMSQTSILSASPAPAQLMNRSQTSSSTSGSITQQTMLLGSTSPTLTASQAQMYLRAQMLIFTPATTVAAVQSDIPVVSSSPSPSCQSAAAQVQNLTLRSQKLGVLSSSQNGSPKSAGQTQSLTICHNKTTVTSSKISQRDPSPESKKGGSPGLESRSTAVTRTSSIHQLIAPASYSPIQPHSLIKHQQIPLHSPPPKVSHHQLLLQQQQQQIQPITLQSPSQDPPPSQHCIPLPNHGLSPAPSNAQPQHCSPVQSHPPPLTVSPNQAQSAQQSVVVSPPPPHSPSQSPTIIIHPQALIQPHPLVSSALQTGPNLQQAAADQVQSTAQLNLPSHLPLPASPVVHIGPVQQSALVSPGQQMVSPTSHQQYSALQSSPIPIATPPQMSASPPAQLPPLPLQSMQSLQVQPEILSQGQVLVQNALVSEEELPAAEALVQLPFQTLPPPQTVAVNLQVQPPAPVDPPVVYQVEDVCEEEMPEESDECARMDRTPPPPTLSPAAVTVGRGEDLTSEHPLLEQVELPAVASVSASVIKSPSDPTHASAPAPPLLIPAASTRSSSTSLASSTPSLENKPPQAIVKPQILTHVIEGFVIQEGLEPFPVSRSSLLIEQPVKKRPLLDNQVVNSVCVQPELQNNTKHADNSSDTEIEDMMAEETLEEMDSELLKCEFCGKMGYPNEFLRSKRFCTMSCAKRYNVSCSKKFALSRWNRKPDNQSLGHRGRRPSGPEGAAREHILRQLPITYPSAEEDVASHEDPVPSAMTTRLRRQSERERERELRDVRIRKMPENSDLLPVAQTEPSIWTVDDVWAFIHSLPGCQDVADEFRAQEIDGQALLLLKEDHLMSAMNMKLGPALKICARINSLKDS |
| – | – | binds | MPH2 (protein, UniProt Q9QWH1 1-850) MENELPVPHTSNRASVTTNTSGTNSSSGCISSSGGGGGSGGRPTAPQISVYSGIPDRQTVQVIQQALHRQPSTAAQYLQQMYAAQQQHLMLQTAALQQQHLSSAQLQSLAAVQQASLVANRQGSTPGSSVSSQAPAQSSSLNLAASPAAAQLINRAQSVNSAAASGLAQQAVLLGNTSSPALTASQAQMYLRAQMLIFTPTATVATVQPELCTGSPARPPTPAQVQNLTLRTQQTPAAAASGPPPTQPVLPSLALKPTPSSSQPLPAPPQGRTMAQGSPAGAKPSGTDNAPETLKAGDGNCNMEGRPGPGRAVPAVATHPLIAPAYAHLQSHQLLPQPPAKHPQPQFVAQQQPQPPRPAPQVQSQPQLASVSPSLALQSSPEDHALPLGSVTQALPLQCSTTHVHKPGNSQQCHLPTLDTGSQNGHPEGGSHPPQRRFQHTSAVILQVQPASPVTPQQCAPDDWKEVVPAEKSVPVARPGPSPHQQAIIPAIPGGLPGPKSPNIQQCPAHETGQGIVHALTDLSSPGMTSGNGNSASSIAGTAPQNGENKPPQAIVKPQILTHVIEGFVIQEGAEPFPVGRSSLLVGNLKKKYAQGFLPEKPPQQDHTTTTDSEMEEPYLQESKEEGTPLKLKCELCGRVDFAYKFKRSKRFCSMACAKRYNVGCTKRVGLFHSDRSKLQKAGTTTHNRRRASKASLPTLTKDTKKQPSGTVPLSVTAALQLAHSQEDSSRCSDNSSYEEPLSPISASSSTSRRRQGQRDLDLPDMHMRDLVGVGHHFLPSEPTKWNVEDVYEFIRSLPGCQEIAEEFRAQEIDGQALLLLKEDHLMSAMNIKLGPALKIYARISMLKDS |
| binds | – | – | NSPC1 (protein, UniProt Q8R023 1-259) MASPQGGQIAIAMRLRNQLQSVYKMDPLRNEEEVRVKIKDLNEHIVCCLCAGYFVDATTITECLHTFCKSCIVKYLQTSKYCPMCNIKIHETQPLLNLKLDRVMQDIVYKLVPGLQDSEEKRIREFYQSRGLDRVSQPSGEEPALSNLGLPFSSFDHSKAHYYRYDEQLSLCLERLSSGKDKNKNVLQNKYVRCSVRAEVRHLRRVLCHRLMLNPQHVQLLFDNEVLPDHMTMKQLWLSRWFGKPSPLLLQYSVKEKRR |
